The source of these data is publication PMC10509710.

These are yes or no findings as the source states them, for the method shown. Some entries that bind do so weakly or less than the wild type.

The assay has as its target human full-length scavenger receptor class B type 1 (SR-B1), glycosylated (human) (UniProt Q8WTV0). As to the kind of experiment: native gel or EMSA; nondenaturing perfluorooctanoic acid (PFO)-PAGE on 8% polyacrylamide gels of sonicated lysates of infected Sf9 cells (72 h), immunoblot against SR-B1 or CD36.

B1: human full-length scavenger receptor class B type 1 (SR-B1), glycosylated (receptor, UniProt Q8WTV0-2 1-509)
chain: MGCSAKARWAAGALGVAGLLCAVLGAVMIVMVPSLIKQQVLKNVRIDPSSLSFNMWKEIPIPFYLSVYFFDVMNPSEILKGEKPQVRERGPYVYREFRHKSNITFNNNDTVSFLEYRTFQFQPSKSHGSESDYIVMPNILVLGAAVMMENKPMTLKLIMTLAFTTLGERAFMNRTVGEIMWGYKDPLVNLINKYFPGMFPFKDKFGLFAELNNSDSGLFTVFTGVQNISRIHLVDKWNGLSKVDFWHSDQCNMINGTSGQMWPPFMTPESSLEFYSPEACRSMKLMYKESGVFEGIPTYRFVAPKTLFANGSIYPPNEGFCPCLESGIQNVSTCRFSAPLFLSHPHFLNADPVLAEAVTGLHPNQEAHSLFLDIHPVTGIPMNCSVKLQLSLYMKSVAGIGQTGKIEPVVLPLLWFAESGAMEGETLHTFYTQLVLMPKVMHYAQYVLLALGCVLLLVPVICQIRSQEKCYLFWSSSKKGSKDKEAIQAYSESLMTSAPKGSVLQEAKL
modifications: glycosylated (Sf9); labeled with Cy5 via lysine residues in the MST
In the case of B1, the binding entry was “binds”.
